## Library screen at single concentrations

The chains behind the UniProt entries cited, without tags or fusion partners. Residues count along the entry.
UniProt A4I591, 1-473: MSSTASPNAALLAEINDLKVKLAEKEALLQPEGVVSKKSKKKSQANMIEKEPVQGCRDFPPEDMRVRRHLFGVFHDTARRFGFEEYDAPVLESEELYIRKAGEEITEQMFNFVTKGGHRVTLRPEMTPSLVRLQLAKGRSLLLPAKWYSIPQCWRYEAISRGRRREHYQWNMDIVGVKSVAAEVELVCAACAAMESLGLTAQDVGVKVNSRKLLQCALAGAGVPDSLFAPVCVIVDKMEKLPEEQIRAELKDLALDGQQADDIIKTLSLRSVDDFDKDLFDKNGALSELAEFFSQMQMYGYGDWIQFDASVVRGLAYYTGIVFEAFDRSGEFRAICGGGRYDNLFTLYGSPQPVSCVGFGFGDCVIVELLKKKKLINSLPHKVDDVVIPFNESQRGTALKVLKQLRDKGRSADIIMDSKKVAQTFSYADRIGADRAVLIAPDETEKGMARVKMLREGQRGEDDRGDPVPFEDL
UniProt Q8IDJ8, 1-583: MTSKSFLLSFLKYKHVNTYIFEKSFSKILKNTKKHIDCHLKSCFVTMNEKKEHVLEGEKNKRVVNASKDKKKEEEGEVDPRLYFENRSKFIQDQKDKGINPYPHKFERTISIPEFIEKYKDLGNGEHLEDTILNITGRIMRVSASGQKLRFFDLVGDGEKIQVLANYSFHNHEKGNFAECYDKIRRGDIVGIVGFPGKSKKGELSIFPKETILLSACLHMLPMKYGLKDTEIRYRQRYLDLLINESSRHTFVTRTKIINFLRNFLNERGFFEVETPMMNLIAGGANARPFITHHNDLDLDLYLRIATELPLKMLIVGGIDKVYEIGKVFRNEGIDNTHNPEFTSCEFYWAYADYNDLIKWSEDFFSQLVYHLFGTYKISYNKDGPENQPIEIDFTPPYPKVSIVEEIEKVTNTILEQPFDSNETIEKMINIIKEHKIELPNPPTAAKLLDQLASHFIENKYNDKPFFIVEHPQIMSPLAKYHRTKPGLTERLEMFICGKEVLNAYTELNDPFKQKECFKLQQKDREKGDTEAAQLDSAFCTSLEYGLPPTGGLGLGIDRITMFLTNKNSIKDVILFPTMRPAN
UniProt Q4DA54, 1-478: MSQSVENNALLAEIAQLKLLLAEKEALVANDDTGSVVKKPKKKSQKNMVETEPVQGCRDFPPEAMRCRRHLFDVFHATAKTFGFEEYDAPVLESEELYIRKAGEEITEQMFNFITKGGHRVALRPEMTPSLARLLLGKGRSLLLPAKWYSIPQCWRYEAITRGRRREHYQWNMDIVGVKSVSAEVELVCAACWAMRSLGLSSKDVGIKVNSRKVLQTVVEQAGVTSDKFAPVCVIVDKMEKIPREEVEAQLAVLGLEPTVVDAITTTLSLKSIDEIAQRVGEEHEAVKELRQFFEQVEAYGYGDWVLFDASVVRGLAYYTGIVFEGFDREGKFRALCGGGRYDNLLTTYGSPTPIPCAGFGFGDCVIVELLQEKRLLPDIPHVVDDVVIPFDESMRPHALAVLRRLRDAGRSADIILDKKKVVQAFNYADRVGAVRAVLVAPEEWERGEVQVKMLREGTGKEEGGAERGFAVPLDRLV

From ChEMBL document CHEMBL3988442, “University of Dundee, Small-Polar-MMV Screening Library” (2021).

Results are given as percent effect.
How 0% and 100% were set is not recorded. Most values in the screen are low, and negative values occur.
The compounds are a random part of those screened.

A: 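Enzyme assay of histidyl-tRNA synthetase; the read-out is not stated. Target: Histidine-tRNA ligase, Leishmania infantum (UniProt A4I591). Compounds at 30 µM. The record gives no direction; compounds that gave an IC50 in retests scored well above the rest, so higher reads as stronger inhibition. The assay is labelled LdHisRS but filed under L. infantum. Size under these conditions: about 69,000 compounds, about 410 of them at 50% or above in at least one test.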
B: 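Enzyme assay of the cytosolic lysyl-tRNA synthetase in 384-well plates, read by luminescence. Target: Lysine-tRNA ligase, Plasmodium falciparum 3D7 (UniProt Q8IDJ8). Compounds at 30 µM. Direction is inferred from only a few compounds that gave an IC50; most scored high, so higher reads as stronger inhibition. About 69,000 compounds were tested under these conditions; 0.071% (about 49) showed 50% or more at least once.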
C: 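Enzyme assay of histidyl-tRNA synthetase; the read-out is not stated. Target: Histidine-tRNA ligase, Trypanosoma cruzi CL Brener (UniProt Q4DA54). Compounds at 30 µM. Direction is inferred from retests: higher values go with stronger inhibition. About 69,000 compounds were tested under these conditions; 0.045% (about 31) showed 50% or more at least once.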

Compound: Cc1cccc(N2CC3(CCN(Cc4nccn4C)C3)CC2=O)c1 (centres undefined)
A: 9
B: 1.064
C: 8.163

Compound: CCN(CC)C(=O)c1ccn(COc2cccc(Cl)c2Cl)n1
A: 22.12
B: 6.854
C: 2.212

Compound: COCCOc1ccc(NC(=O)N(CCCO)CC(C)(C)C)cn1
A: 6.349
B: -2.111
C: 2.564

Compound: C=C(C)CN(CC)C(=O)CN1CCCC1C(=O)N(C)C (centres undefined)
A: 1.55
B: -4.444
C: -1.19

Compound: C[C@@H](NCc1cccc(Cl)c1)c1onc(-c2ccccc2)c1C(=O)O
A: 24.32
B: 8.396
C: 2.488

Compound: FC(F)(F)c1ccc2nc([C@H]3CCN(C4CCC4)C3)[nH]c2c1
A: -2.778
B: 4.733
C: 6.931

Compound: COCC(=O)NC[C@H]1C[C@@H]2CCN1C[C@@H]2CN1CCc2ccccc21
A: 24.32
B: 7.133
C: -0.4975

Compound: COc1ccc(OC2CCN(C(=O)C(C)Cn3cccn3)CC2)cc1 (centres undefined)
A: 8.547
B: 1.674
C: 4.865

Compound: Cc1ccc(CS(=O)(=O)CC(=O)NCCCOC(C)C)cc1
A: 17.31
B: 3.223
C: 8.571

Compound: Cc1ccccc1-c1noc(-c2ccc(N(C)C3CCOCC3)nc2)n1
A: 6.667
B: 2.223
C: 4.046

Compound: CC(=O)N1CCC(C(=O)NCc2cc[nH]n2)(c2ccccc2)CC1
A: 9.821
B: 0.8982
C: 7.514

Compound: Cc1ccc(NC2CCN(C(=O)c3cccnc3O)CC2)nn1
A: 5.357
B: -0.4359
C: 0

Compound: Cc1nc(C)c2c(n1)CCN(Cc1nccn1C)CC2
A: 17.82
B: 3.669
C: -17.59

Compound: COC[C@@H]1CC[C@H]2[C@H](CCN2S(=O)(=O)c2cccc(F)c2)O1
A: 2.655
B: 2.061
C: 2.4

Compound: Nc1cc(-c2c[nH]nc2C2CCCN2S(=O)(=O)c2ccccc2)ccn1 (centres undefined)
A: 5.755
B: 1.794
C: 4.981

Compound: COc1nn(C)cc1C(=O)NCC(=O)NCc1ccccn1
A: 10.43
B: 2.66
C: 3.093

Compound: Cc1ccc(=O)n(CC2(O)CCN(Cc3cnn(C)c3)CC2)n1
A: 5.208
B: 1.132
C: 4.255

Compound: Cc1cc(F)ccc1N1CCC(N2C[C@@H](CN(C)C)[C@@H](CO)C2)CC1
A: 21.69
B: 0.4328
C: 12.71

Compound: Cn1cc(C(=O)N2CCCC(Cc3nccs3)C2)cn1 (centres undefined)
A: 5.714
B: 10.72
C: 6.452

Compound: COCC1CCCCN1Cc1nc(-c2ccoc2)oc1C (centres undefined)
A: 8.8
B: -2.635
C: 2.513

Compound: Cc1nc(C)n(CC2CCCN2CCCc2ccccc2)n1 (centres undefined)
A: 23.08
B: -2.886
C: 10.74

The last 2 entries again:

| Compound | A | B | C |
|---|---|---|---|
| `COCC1CCCCN1Cc1nc(-c2ccoc2)oc1C` (centres undefined) | 8.8 | -2.635 | 2.513 |
| `Cc1nc(C)n(CC2CCCN2CCCc2ccccc2)n1` (centres undefined) | 23.08 | -2.886 | 10.74 |